Test results as given in PubChem BioAssay AID651803 (National Center for Advancing Translational Sciences (NCATS), 2012).
Hit rate of the full screen: of about 1,200 compounds, fewer than 10 were called active. The call rests on the fitted dose curve; in most records, active means well fitted curve in the direction sought with a large enough effect; inconclusive means small, poorly fitted or top-dose-only effect, or another doubt; inactive means no such curve, though single readings can be large or run the other way. The list shows a part of the results.

Amino acid sequences for entries named in this document (tags omitted). A change or cut given only in a name is not applied to a line headed by its entry.
UniProt P11308: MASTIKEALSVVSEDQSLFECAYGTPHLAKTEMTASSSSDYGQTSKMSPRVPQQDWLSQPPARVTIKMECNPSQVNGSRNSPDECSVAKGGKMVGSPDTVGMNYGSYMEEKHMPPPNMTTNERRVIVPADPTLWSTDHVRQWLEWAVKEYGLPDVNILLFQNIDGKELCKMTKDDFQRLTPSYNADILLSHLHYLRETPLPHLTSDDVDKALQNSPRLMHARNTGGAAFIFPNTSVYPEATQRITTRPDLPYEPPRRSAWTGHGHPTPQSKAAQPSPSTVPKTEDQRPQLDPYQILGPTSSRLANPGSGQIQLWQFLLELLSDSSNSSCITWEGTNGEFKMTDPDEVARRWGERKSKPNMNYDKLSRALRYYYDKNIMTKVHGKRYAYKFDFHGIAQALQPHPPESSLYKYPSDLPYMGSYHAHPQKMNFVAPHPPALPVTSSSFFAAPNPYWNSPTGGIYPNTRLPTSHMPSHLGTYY

Molecular target: Transcriptional regulator ERG (Homo sapiens) (UniProt P11308)
Assay: qHTS for Small Molecule Inhibitors of the ERG Ets/DNA interaction: TR assay against cherry picks; further: % of control where 0% means no effect
Conditions: ERG Ets domain-DNA fluorescence polarization, Texas red probe; at 154 µM (top of the series)
How it was run: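 Polarization read sequentially for fluorescein (ex 480/em 535 nm) and Texas red (ex 555/em 632 nm) probes, 5 nM and 100 nM solutions, displaced from His-ERG Ets domain (1 uM solution), pH 7.5 Tris/KCl/EDTA/DTT buffer.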

Activity change, negative = inhibition, inactive:
CC1(C)OC(C)(C)/C(=C/Nc2ccc(O)cc2)C1=O 2.72%
CC1=CC(C)(C)N2C(=O)C(=Nc3ccc(O)cc3)c3cccc1c32 -7.78%
CCC1COC(c2cccn2Cc2ccc(Cl)cc2)=N1 (stereo not drawn) 0.438%
O=S(=O)(NCCC1=CCCCC1)c1ccc(OC(F)(F)F)cc1 -22.2%
CCOC(=O)c1c(NC(=O)C(C)Sc2cn(CCNC(=O)c3ccc(OC)c(OC)c3)c3ccccc23)sc2c1CCC2 (stereo not drawn) -9.91%
Cc1cccn2c(=O)c3cc(C#N)c(=NC(=O)c4ccccc4)n(Cc4ccco4)c3nc12 2.24%
O=C(Nc1ccc(-c2nc3ccccc3[nH]2)cc1)c1c(F)c(F)c(F)c(F)c1F 6.61%
COc1ccc(NC(=O)C(C)(C)Oc2ccc(Cl)cc2)cn1 -10.7%
COc1ccc(CCNc2oc(-c3cccc4ccccc34)nc2P(=O)(OC)OC)cc1OC -5.96%
CCC(=O)N1CCN(c2nc3ccc(Br)cc3s2)CC1 2.3%
O=C(CN1C(=O)COc2ccc(S(=O)(=O)N3CCCCCC3)cc21)N1CCN(c2ccccc2F)CC1 -18.9%
C#C[C@]1(O)CCC2C3CCC4=CC(=O)CC[C@@H]4C3CC[C@@]21C (stereo partly drawn) 1.42%
COc1cc(/C=N/NC(=O)C(=O)NCc2ccco2)cc(Br)c1O 2.43%
C=CCOc1ccc(/C=N/NC(C)=O)cc1OCC -3.61%
O=C(NC1CCCC1)C1CCC(CNS(=O)(=O)c2cccs2)CC1 (stereo not drawn) 2.82%
C/C(=N/OCO/N=C(\C)c1ccccc1)c1ccccc1 -14%
O=C(Nc1cc2c(cc1Cl)-c1ccc([N+](=O)[O-])cc1C2=NO)C(F)(F)F -27.9%
O=C(OCC(=O)c1ccc(Cl)cc1Cl)c1cnccn1 0.718%
O=C(Nc1ccc(C(=O)O)cc1)/C(=C\c1cccc([N+](=O)[O-])c1)NC(=O)c1ccc(Br)o1 -9.45%
CCc1cc(C(=O)NNC(=S)Nc2cccc(C)c2)cs1 3.53%
COc1ccccc1NC(=O)N1CCN(C(=O)Nc2ccccc2OC)CC1 -19.1%
CC(=O)Nc1ccc(/C(C)=N/NC(=O)c2ccccc2Cl)cc1 2.9%
Cc1c(OCC(=O)NCC2CCC(C(=O)NCCCO)CC2)ccc2c(-c3ccccc3)cc(=O)oc12 (stereo not drawn) 7.74%
OC(c1cc(C(F)(F)F)nc2c(Cl)cc(Cl)cc12)C1CCCCN1 (stereo not drawn) -17.6%
CCc1ccc(S(=O)(=O)NC2CC(C)(C)NC(C)(C)C2)cc1 -5.64%
COC(=O)Cn1c(=NC(=O)CN2C(=O)CCC2=O)sc2cc(S(N)(=O)=O)ccc21 3.73%
COc1cc(/C=N/NC(=O)CC2(C)OCCO2)cc(Br)c1O -0.591%
COCC1CCN(Cc2nc(-c3ccc4c(c3)OCO4)no2)C1 (stereo not drawn) 14.2%
Cc1ccc2c(c1)N(CCC(=O)NCCCN1CCCC1)C(=O)CO2 -7.25%
CC1CC(=O)N(CC(=O)Nc2cccc(Cl)c2)c2ccccc2S1(=O)=O (stereo not drawn) -6.57%
C=C(C)[C@@H]1CC=C(C(=O)O)CC1 -15.8%
Cc1ccc(Cl)cc1NC(=O)c1oc2ccc(S(=O)(=O)N(C)C3CCCCC3)cc2c1C -6.65%
Cc1ccc(OCC(=O)OCC(=O)c2ccccc2)cc1C 4.59%
O=C(Nc1ccncc1)c1cn(-c2ccccc2)nc1-c1cccs1 -21%
COc1ccc(NC(=O)CSc2nc(C)c3c(c2C#N)CCCC3)cc1 4.28%
CCCC(c1nnnn1CS(=O)(=O)c1ccc(C)cc1)N1CCN(CC)CC1 (stereo not drawn) -14.2%
CCOC(=O)C(c1ccccc1)C(Nc1ccc(F)cc1)c1ccccn1 (stereo not drawn) -19.2%
Cc1ccc(NC(=O)/C(C#N)=C/c2ccc(C)s2)c(C)c1 90%

Some of these compounds in order of formula weight, largest number first:
Activity change, negative = inhibition, inactive:
COc1cc(/C=N/NC(=O)C(=O)NCc2ccco2)cc(Br)c1O 2.43%
OC(c1cc(C(F)(F)F)nc2c(Cl)cc(Cl)cc12)C1CCCCN1 (stereo not drawn) -17.6%
CCOC(=O)C(c1ccccc1)C(Nc1ccc(F)cc1)c1ccccn1 (stereo not drawn) -19.2%
